Measurements from US10759826B2, “15β-substituted estrone derivatives as selective inhibitors of 17β-hydroxysteroid-dehydrogenases, method of preparation and use thereof” (USTAV ORGANICKE CHEMIE A BIOCHEMIE AV CR, V.V.I., priority 2016, dated 2020).
pIC50: −log10 of the molar value.

Tested on: U2OS cells
Experiment: Cell viability (ATP) of unmodified U2OS cells, parallel to reporter assay
Type: cell-based
Conditions: Homo sapiens
Procedure: To separate the antagonist activity of test compounds from the cytotoxic effect on U2OS cells (cell line derived from osteosarcoma), an experiment for determination of cell viability was performed in parallel with the reporter assay. Original, genetically unmodified U2OS cells were grown under the same conditions as the reporter cells. These cells were further treated and incubated with the compounds in a completely identical manner and for the same time as cells in the reporter assay. At the end of the experiment, the amount of ATP was determined using BriteLite luciferase homogeneous assay as a measure of cell viability. The data were then processed together with data from the reporter assays.

pIC50: 4.05
SMILES: CNC(=O)c1ccc(N2C(=S)N(c3ccc(C#N)c(C(F)(F)F)c3)C(=O)C2(C)C)cc1F [Enzalutamide]
